Data on 7 molecules can be found in paper PMC8864472.

Amino acid sequences for entries named in this document (tags omitted). Residues count along the entry.
UniProt P07237, residues 18-508: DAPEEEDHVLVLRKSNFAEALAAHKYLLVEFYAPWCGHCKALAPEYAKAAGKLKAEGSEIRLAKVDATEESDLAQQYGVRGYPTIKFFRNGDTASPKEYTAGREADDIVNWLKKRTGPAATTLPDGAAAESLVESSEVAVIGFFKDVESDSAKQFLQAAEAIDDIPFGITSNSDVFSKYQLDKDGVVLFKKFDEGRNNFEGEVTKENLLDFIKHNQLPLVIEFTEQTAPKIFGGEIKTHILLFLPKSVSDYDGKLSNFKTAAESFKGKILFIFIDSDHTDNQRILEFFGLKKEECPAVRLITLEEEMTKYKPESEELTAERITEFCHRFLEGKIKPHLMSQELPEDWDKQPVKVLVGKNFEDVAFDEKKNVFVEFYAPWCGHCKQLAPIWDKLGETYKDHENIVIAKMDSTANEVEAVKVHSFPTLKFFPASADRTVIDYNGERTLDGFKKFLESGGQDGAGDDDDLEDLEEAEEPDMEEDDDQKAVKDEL
UniProt Q9NYU2, residues 43-1555: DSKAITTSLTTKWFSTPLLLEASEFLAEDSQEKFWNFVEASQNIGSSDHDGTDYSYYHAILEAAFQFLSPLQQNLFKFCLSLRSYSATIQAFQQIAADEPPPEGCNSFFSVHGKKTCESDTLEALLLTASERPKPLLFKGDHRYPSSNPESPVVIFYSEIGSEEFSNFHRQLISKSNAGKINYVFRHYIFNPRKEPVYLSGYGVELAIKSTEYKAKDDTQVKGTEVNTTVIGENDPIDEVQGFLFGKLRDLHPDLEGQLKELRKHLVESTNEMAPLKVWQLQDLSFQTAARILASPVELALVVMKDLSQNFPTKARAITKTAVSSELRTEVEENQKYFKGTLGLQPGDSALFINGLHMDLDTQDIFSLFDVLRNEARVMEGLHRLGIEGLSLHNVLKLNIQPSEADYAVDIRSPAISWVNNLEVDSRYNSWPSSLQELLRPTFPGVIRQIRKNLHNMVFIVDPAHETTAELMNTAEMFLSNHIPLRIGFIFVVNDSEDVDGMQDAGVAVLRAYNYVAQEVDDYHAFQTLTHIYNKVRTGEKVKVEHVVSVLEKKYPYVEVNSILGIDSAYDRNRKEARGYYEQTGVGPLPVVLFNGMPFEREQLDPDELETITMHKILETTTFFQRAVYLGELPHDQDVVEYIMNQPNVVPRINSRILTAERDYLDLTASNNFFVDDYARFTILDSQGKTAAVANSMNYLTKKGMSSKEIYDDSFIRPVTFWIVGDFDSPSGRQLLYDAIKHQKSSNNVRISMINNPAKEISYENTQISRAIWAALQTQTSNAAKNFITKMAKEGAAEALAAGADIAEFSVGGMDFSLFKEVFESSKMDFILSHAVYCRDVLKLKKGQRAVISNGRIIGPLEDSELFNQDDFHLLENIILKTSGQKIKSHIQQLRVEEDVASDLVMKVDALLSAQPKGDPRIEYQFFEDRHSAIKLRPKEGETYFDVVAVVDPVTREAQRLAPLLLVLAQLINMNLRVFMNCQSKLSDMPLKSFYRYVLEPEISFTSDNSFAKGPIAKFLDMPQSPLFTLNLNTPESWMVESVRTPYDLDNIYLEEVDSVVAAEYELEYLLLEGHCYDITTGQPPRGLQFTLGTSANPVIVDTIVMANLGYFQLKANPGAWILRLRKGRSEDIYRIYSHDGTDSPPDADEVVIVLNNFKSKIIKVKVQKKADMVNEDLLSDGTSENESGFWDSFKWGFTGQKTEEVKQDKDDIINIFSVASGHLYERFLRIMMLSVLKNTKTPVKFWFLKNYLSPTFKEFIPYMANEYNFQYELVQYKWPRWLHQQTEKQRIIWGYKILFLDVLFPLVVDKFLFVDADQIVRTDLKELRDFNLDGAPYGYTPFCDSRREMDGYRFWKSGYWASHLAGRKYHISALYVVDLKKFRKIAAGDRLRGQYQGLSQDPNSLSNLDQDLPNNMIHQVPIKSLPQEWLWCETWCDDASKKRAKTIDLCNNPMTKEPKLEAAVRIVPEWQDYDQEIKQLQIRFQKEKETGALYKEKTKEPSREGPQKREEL

These are yes or no findings as the source states them, for the method shown. In cells and extracts the contact can be indirect. Here binding means that the protein was enriched with, or labelled near, the bait; the list need not be complete.

Holding throughout (experiment): affinity purification with mass spectrometry; TAP-MS: C-terminal SFB-tagged PLD bait from stable HEK293A cells, lysed in NETN buffer (100 mM NaCl, 20 mM Tris-HCl pH 8.0, 0.5 mM EDTA, 0.5% Nonidet P-40), streptavidin beads, biotin elution, S protein beads, 4 °C; HCIP: SAINT score at least 0.8 and raw spectra count at least 2
Test [1] has as its target T1, PLD3 (human) (UniProt Q8IV08).
T1 sequence: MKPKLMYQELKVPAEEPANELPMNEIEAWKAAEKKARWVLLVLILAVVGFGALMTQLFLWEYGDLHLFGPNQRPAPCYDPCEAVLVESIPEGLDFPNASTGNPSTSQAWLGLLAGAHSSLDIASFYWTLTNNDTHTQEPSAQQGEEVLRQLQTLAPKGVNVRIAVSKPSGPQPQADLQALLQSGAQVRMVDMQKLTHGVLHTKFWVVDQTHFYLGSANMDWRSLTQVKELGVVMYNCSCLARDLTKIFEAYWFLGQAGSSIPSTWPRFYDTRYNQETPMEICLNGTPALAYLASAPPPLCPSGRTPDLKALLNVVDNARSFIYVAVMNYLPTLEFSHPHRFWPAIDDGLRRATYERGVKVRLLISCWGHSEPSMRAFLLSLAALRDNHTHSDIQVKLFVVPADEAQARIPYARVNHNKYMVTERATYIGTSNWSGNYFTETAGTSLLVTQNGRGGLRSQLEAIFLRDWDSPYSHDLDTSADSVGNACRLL

The target in test [2] is T2, PLD4 (human) (UniProt Q96BZ4).
T2 sequence: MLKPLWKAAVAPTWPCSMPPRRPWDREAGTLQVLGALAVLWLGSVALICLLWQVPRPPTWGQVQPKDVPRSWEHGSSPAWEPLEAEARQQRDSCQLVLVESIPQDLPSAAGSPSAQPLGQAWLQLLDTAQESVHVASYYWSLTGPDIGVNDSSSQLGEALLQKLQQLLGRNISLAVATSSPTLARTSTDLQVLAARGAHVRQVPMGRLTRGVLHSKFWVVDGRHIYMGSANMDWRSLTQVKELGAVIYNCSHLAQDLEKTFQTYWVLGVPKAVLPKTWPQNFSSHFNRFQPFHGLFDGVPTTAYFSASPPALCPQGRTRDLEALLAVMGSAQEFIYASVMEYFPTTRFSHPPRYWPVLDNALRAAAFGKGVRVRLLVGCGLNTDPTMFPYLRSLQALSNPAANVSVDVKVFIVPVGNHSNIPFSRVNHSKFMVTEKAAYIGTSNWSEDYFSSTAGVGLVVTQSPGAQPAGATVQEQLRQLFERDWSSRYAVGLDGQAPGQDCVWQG

The target in test [3] is T3, PLD6 (human) (UniProt Q8N2A8).
T3 sequence: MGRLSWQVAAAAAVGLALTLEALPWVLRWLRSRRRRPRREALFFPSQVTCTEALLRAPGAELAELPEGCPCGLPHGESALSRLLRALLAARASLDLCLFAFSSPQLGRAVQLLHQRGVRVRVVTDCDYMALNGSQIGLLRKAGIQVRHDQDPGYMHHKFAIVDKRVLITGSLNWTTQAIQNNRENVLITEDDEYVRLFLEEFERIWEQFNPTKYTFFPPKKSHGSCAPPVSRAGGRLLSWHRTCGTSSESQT

With P4HB (from UniProt P07237 18-508), the binding entry in test [1], in test [2] and in test [3] was “binds” throughout.

Regarding UGGT1 (from UniProt Q9NYU2 43-1555), the binding result in test [1], in test [2] and in test [3] was “binds” in each case.

B1: HYOU1 (protein, UniProt Q9Y4L1 33-999)
chain: LAVMSVDLGSESMKVAIVKPGVPMEIVLNKESRRKTPVIVTLKENERFFGDSAASMAIKNPKATLRYFQHLLGKQADNPHVALYQARFPEHELTFDPQRQTVHFQISSQLQFSPEEVLGMVLNYSRSLAEDFAEQPIKDAVITVPVFFNQAERRAVLQAARMAGLKVLQLINDNTATALSYGVFRRKDINTTAQNIMFYDMGSGSTVCTIVTYQMVKTKEAGMQPQLQIRGVGFDRTLGGLEMELRLRERLAGLFNEQRKGQRAKDVRENPRAMAKLLREANRLKTVLSANADHMAQIEGLMDDVDFKAKVTRVEFEELCADLFERVPGPVQQALQSAEMSLDEIEQVILVGGATRVPRVQEVLLKAVGKEELGKNINADEAAAMGAVYQAAALSKAFKVKPFVVRDAVVYPILVEFTREVEEEPGIHSLKHNKRVLFSRMGPYPQRKVITFNRYSHDFNFHINYGDLGFLGPEDLRVFGSQNLTTVKLKGVGDSFKKYPDYESKGIKAHFNLDESGVLSLDRVESVFETLVEDSAEEESTLTKLGNTISSLFGGGTTPDAKENGTDTVQEEEESPAEGSKDEPGEQVELKEEAEAPVEDGSQPPPPEPKGDATPEGEKATEKENGDKSEAQKPSEKAEAGPEGVAPAPEGEKKQKPARKRRMVEEIGVELVVLDLPDLPEDKLAQSVQKLQDLTLRDLEKQEREKAANSLEAFIFETQDKLYQPEYQEVSTEEQREEISGKLSAASTWLEDEGVGATTVMLKEKLAELRKLCQGLFFRVEERKKWPERLSALDNLLNHSSMFLKGARLIPEMDQIFTEVEMTTLEKVINETWAWKNATLAEQAKLPATEKPVLLSKDIEAKMMALDREVQYLLNKAKFTKPRPRPKDKNGTRAEPPLNASASDQGEKVIPPAGQTEDAEPISEPEKVETGSEPGDTEPLELGGPGAEPEQKEQSTGQKRPLKNDEL
Take B1: the binding result in test [1], in test [2] and in test [3] was “binds” in each case.

B2: GANAB (protein, UniProt Q14697 29-944)
chain: ITLAVDRSNFKTCEESSFCKRQRSIRPGLSPYRALLDSLQLGPDSLTVHLIHEVTKVLLVLELQGLQKNMTRFRIDELEPRRPRYRVPDVLVADPPIARLSVSGRDENSVELTMAEGPYKIILTARPFRLDLLEDRSLLLSVNARGLLEFEHQRAPRVSQGSKDPAEGDGAQPEETPRDGDKPEETQGKAEKDEPGAWEETFKTHSDSKPYGPMSVGLDFSLPGMEHVYGIPEHADNLRLKVTEGGEPYRLYNLDVFQYELYNPMALYGSVPVLLAHNPHRDLGIFWLNAAETWVDISSNTAGKTLFGKMMDYLQGSGETPQTDVRWMSETGIIDVFLLLGPSISDVFRQYASLTGTQALPPLFSLGYHQSRWNYRDEADVLEVDQGFDDHNLPCDVIWLDIEHADGKRYFTWDPSRFPQPRTMLERLASKRRKLVAIVDPHIKVDSGYRVHEELRNLGLYVKTRDGSDYEGWCWPGSAGYPDFTNPTMRAWWANMFSYDNYEGSAPNLFVWNDMNEPSVFNGPEVTMLKDAQHYGGWEHRDVHNIYGLYVHMATADGLRQRSGGMERPFVLARAFFAGSQRFGAVWTGDNTAEWDHLKISIPMCLSLGLVGLSFCGADVGGFFKNPEPELLVRWYQMGAYQPFFRAHAHLDTGRREPWLLPSQHNDIIRDALGQRYSLLPFWYTLLYQAHREGIPVMRPLWVQYPQDVTTFNIDDQYLLGDALLVHPVSDSGAHGVQVYLPGQGEVWYDIQSYQKHHGPQTLYLPVTLSSIPVFQRGGTIVPRWMRVRRSSECMKDDPITLFVALSPQGTAQGELFLDDGHTFNYQTRQEFLLRRFSFSGNTLVSSSADPEGHFETPIWIERVVIIGAGKPAAVVLQTKGSPESRLSFQHDPETSVLVLRKPGINVASDWSIHLR
Turning to B2, the binding result in test [1], in test [2] and in test [3] was “binds” each time.

B3: ACOT9 (protein, UniProt Q9Y305 22-439)
chain: LTQGPQNPKKQGIFHIHEVRDKLREIVGASTNWRDHVKAMEERKLLHSFLAKSQDGLPPRRMKDSYIEVLLPLGSEPELREKYLTVQNTVRFGRILEDLDSLGVLICYMHNKIHSAKMSPLSIVTALVDKIDMCKKSLSPEQDIKFSGHVSWVGKTSMEVKMQMFQLHGDEFCPVLDATFVMVARDSENKGPAFVNPLIPESPEEEELFRQGELNKGRRIAFSSTSLLKMAPSAEERTTIHEMFLSTLDPKTISFRSRVLPSNAVWMENSKLKSLEICHPQERNIFNRIFGGFLMRKAYELAWATACSFGGSRPFVVAVDDIMFQKPVEVGSLLFLSSQVCFTQNNYIQVRVHSEVASLQEKQHTTTNVFHFTFMSEKEVPLVFPKTYGESMLYLDGQRHFNSMSGPATLRKDYLVEP
For B3, the binding result in test [3] was “binds”.

B4: OS9 (protein, UniProt Q13438 26-667)
chain: GGVGSLNLEELSEMRYGIEILPLPVMGGQSQSSDVVIVSSKYKQRYECRLPAGAIHFQREREEETPAYQGPGIPELLSPMRDAPCLLKTKDWWTYEFCYGRHIQQYHMEDSEIKGEVLYLGYYQSAFDWDDETAKASKQHRLKRYHSQTYGNGSKCDLNGRPREAEVRFLCDEGAGISGDYIDRVDEPLSCSYVLTIRTPRLCPHPLLRPPPSAAPQAILCHPSLQPEEYMAYVQRQADSKQYGDKIIEELQDLGPQVWSETKSGVAPQKMAGASPTKDDSKDSDFWKMLNEPEDQAPGGEEVPAEEQDPSPEAADSASGAPNDFQNNVQVKVIRSPADLIRFIEELKGGTKKGKPNIGQEQPVDDAAEVPQREPEKERGDPERQREMEEEEDEDEDEDEDEDERQLLGEFEKELEGILLPSDRDRLRSEVKAGMERELENIIQETEKELDPDGLKKESERDRAMLALTSTLNKLIKRLEEKQSPELVKKHKKKRVVPKKPPPSPQPTEEDPEHRVRVRVTKLRLGGPNQDLTVLEMKRENPQLKQIEGLVKELLEREGLTAAGKIEIKIVRPWAEGTEEGARWLTDEDTRNLKEIFFNILVPGAEEAQKERQRQKELESNYRRVWGSPGGEGTGDLDEFDF
Turning to B4, the binding entry in test [1], in test [2] and in test [3] was “binds” each time.

B5: CHPF2 (protein, UniProt Q9P2E5 1-772)
chain: MRLSSLLALLRPALPLILGLSLGCSLSLLRVSWIQGEGEDPCVEAVGERGGPQNPDSRARLDQSDEDFKPRIVPYYRDPNKPYKKVLRTRYIQTELGSRERLLVAVLTSRATLSTLAVAVNRTVAHHFPRLLYFTGQRGARAPAGMQVVSHGDERPAWLMSETLRHLHTHFGADYDWFFIMQDDTYVQAPRLAALAGHLSINQDLYLGRAEEFIGAGEQARYCHGGFGYLLSRSLLLRLRPHLDGCRGDILSARPDEWLGRCLIDSLGVGCVSQHQGQQYRSFELAKNRDPEKEGSSAFLSAFAVHPVSEGTLMYRLHKRFSALELERAYSEIEQLQAQIRNLTVLTPEGEAGLSWPVGLPAPFTPHSRFEVLGWDYFTEQHTFSCADGAPKCPLQGASRADVGDALETALEQLNRRYQPRLRFQKQRLLNGYRRFDPARGMEYTLDLLLECVTQRGHRRALARRVSLLRPLSRVEILPMPYVTEATRVQLVLPLLVAEAAAAPAFLEAFAANVLEPREHALLTLLLVYGPREGGRGAPDPFLGVKAAAAELERRYPGTRLAWLAVRAEAPSQVRLMDVVSKKHPVDTLFFLTTVWTRPGPEVLNRCRMNAISGWQAFFPVHFQEFNPALSPQRSPPGPPGAGPDPPSPPGADPSRGAPIGGRFDRQASAEGCFYNADYLAARARLAGELAGQEEEEALEGLEVMDVFLRFSGLHLFRAVEPGLVQKFSLRDCSPRLSEELYHRCRLSNLEGLGGRAQLAMALFEQEQANST
B5: the binding entry in test [1], in test [2] and in test [3] was “binds” each time.
